Assay results: patent publication USRE37534E1, “Pharmaceutical compositions” (BTG International Limited, priority 1982, dated 2002)

System: erythrocyte ghosts
Assay: 59Fe associated with erythrocyte ghosts after lysis
Type: cell-based, human

In the case of `Cc1occc(=O)c1[O-].Cc1occc(=O)c1[O-].Cc1occc(=O)c1[O-].[Fe+3]` [Fe^III (maltol)3], the “Iron associated with ghosts (%), Triton lysis” value (lysis by 10% v/v Triton X100) is reported as less than 1% and the “Iron associated with ghosts (%), Hypotonic lysis” value (lysis by 10 fold excess of water) is reported as less than 5%.
